Screen size: about 31,000 sequences; about 1,400 (4.5%) were called active.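 Rule for the calls: active = median seed-adjusted z-score above 1 or below -1; inactive = the rest.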 This is one part of the list.
Assay: Novel Modifiers of Survival Motor Neuron (SMN) Protein: Gene Identification via Genome-wide siRNA Screen;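 note: luminescence tracks full-length SMN protein made from the SMN2 reporter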
Conditions: HEK293T SMN2-luciferase reporter, siRNA knockdown, 72 h; actives lie on both sides
Method in brief: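 siRNA screen, 10418 genes ×3 siRNAs; 1 pmol/well, lipid reverse transfection into HEK293T SMN2-luc reporter line. 72 h, 37 °C, 5% CO2; ONE-Glo readout. Data: neg-ctrl normalized, log10, MAD; hit = MAD >1.0 or < -1.0.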

Sequence | median seed-adjusted z-score
GGAGGAUGUUAGAUCAUGATT against TOP1MT | inactive: 0.159
CAAUGAAAAGGCUUAAAAATT against NEUROG1 | inactive: 0.485
GGCACUUACUAUGACAAUUTT against EZH2 | inactive: 0.313
GAAAAGCCCUGGUGCUUUATT against HABP2 | inactive: -0.141
CAAUGAGCCUCAUAACAAATT against SLC22A9 | inactive: -0.778
CCAUAUCUCUCGGUGUACATT against CDC42BPA | inactive: 0.257
AGAUGAUGGAGCUCAAUGATT against GFAP | inactive: -0.312
CAAUCAUCUUUGCAAUUAUTT against KRTAP9-3 | inactive: -0.184
CAGUGUCCAUGUACCUCUUTT against SLC37A4 | inactive: -0.00202
GUAUCUAUUCGGACAGAUATT against RAD1 | inactive: -0.71
GGUCUUUAAUUCGAAGCGATT against ZNF765 | inactive: 0.541
GGAUGUAAGAAAAGCAUGATT against ZFYVE1 | inactive: -0.546
CAAACUCACUAAUGAUUAUTT against SERPINB13 | inactive: 0.0593
CGAUCUCAGAUAGAUCAGATT against ZHX2 | inactive: 0.0708
GCCUCACCAUUGCAUGCAATT against S100A10 | inactive: 0.366
CAUUAUGAAUUGGAUAUCATT against EIF2C2 | inactive: -0.183
GGACAAUAAUGAGUACAUUTT against RNF145 | inactive: -0.554
GCUGAGAUUUUCAAUAAGATT against NR1H4 | inactive: -0.056
CACCUGUUCUAUCACAGUATT against NOP2 | active: 1.15
GAUUGAUGGGUUUCCAAGATT against CMPK1 | inactive: -0.363
GGGAUGUACUCGAACCUAUTT against ZNF292 | inactive: -0.481
CCUCUAUCGUCUUACGAGATT against RAPGEF4 | inactive: -0.197

Sequence | median seed-adjusted z-score
AGCACAAGAUUGGACCAAUTT against NME4 | inactive: -0.155
GAUCUAUUGUGACUCGAGATT against COL22A1 | inactive: 0.3
GUACAGACCUGAGAAUUCUTT against CTSL2 | active: -1.04
GGAACACUGUAUAACACCATT against ATG7 | inactive: -0.328
GCACUGGAGUUGUCUCUUATT against NPTXR | inactive: 0.0818
CGGUAUUAUUGUCAUUGCATT against UBE2K | inactive: 0.497
ACACCAAGAAGAUAUGGAATT against ZNF681 | inactive: 0.271
GGGAGAAGGUGAGCAGUAUTT against ZYX | inactive: 0.273
AAUCAAUGCUCAAACCACATT against CRADD | inactive: -0.255
ACAUGUACCUGUAUUAAAATT against RLN2 | inactive: 0.877
GCUAUGCUGAUGACACGUUTT against RAB3B | inactive: -0.705
GGAUAUCCUCCAUAAUGUUTT against SLC16A1 | inactive: -0.277
CGUCUUAUCUUUAGAGAUUTT against PPT1 | inactive: 0.727
GCACAAAACAGCUGAGGCATT against OLFM1 | inactive: -0.103
GAUCGGAAGUUGCACCCAUTT against ARHGEF10 | inactive: 0.22
CAUCUAGACUUGUAUGCAATT against ATP10B | inactive: 0.51
CCCUGUAUGGGAUCACUUUTT against SCD | inactive: -0.982
GCAUCGGAAGAUCAUUUUATT against THOC3 | inactive: 0.689
GACGUAACAUCAACAGAUATT against SV2B | inactive: -0.43
AGAAAAUCGUUUCCCACUATT against GJA8 | inactive: 0
GAUGCGUUCAUGUCAGAAATT against SLC4A1AP | inactive: -0.0117
CAGUGGUAAGAAAGAGAAATT against NRCAM | inactive: -0.0304

For reference, part of the list above:
Sequence | median seed-adjusted z-score
CGGUAUUAUUGUCAUUGCATT against UBE2K | inactive: 0.497
ACACCAAGAAGAUAUGGAATT against ZNF681 | inactive: 0.271
GGGAGAAGGUGAGCAGUAUTT against ZYX | inactive: 0.273
AAUCAAUGCUCAAACCACATT against CRADD | inactive: -0.255

Next records.

Sequence | median seed-adjusted z-score
AGAAUAUUAUGACUAUGGATT against KHDRBS1 | inactive: 0.0916
GUCAAGAUCUGUAAGAGCATT against SGK269 | inactive: -0.171
GGAUGAGAAAGUCGUGAAATT against TSHZ2 | inactive: -0.361
CCACAAGGGUUAUCUGUCATT against MAPK4 | inactive: 0.235
GCCCUACAUGGUAAAUUCATT against GTDC1 | inactive: 0.2
CAUUAUCUAUGAUUAUGGATT against OGN | inactive: 0.0889
AAAUCAAUCCAGACAUGAATT against CD97 | inactive: 0.202
GAUUGUCAAAGGGAAAAGATT against TTLL9 | inactive: 0.0534
GGGCAGAUGACACCUUUGATT against TCEB2 | active: 1.28
GGGAAGAUUUCGUUCAAAATT against CETN2 | inactive: -0.0139
GAGGCUGAUUGGACGGAAATT against HSPA2 | inactive: -0.0343
CUGACGAGCCGGGAAAAUATT against LCN1 | inactive: 0.0607
GCAAAUGAAGUGUCUCAAATT against DHRS11 | inactive: -0.476
GAAAACAACCAUAAAGAAATT against SYT6 | inactive: -0.072
GAAGGAGAAUGGUAUCACUTT against GPATCH4 | inactive: -0.519
GAGUUUGACCCAAUAUGAATT against TYR | inactive: 0.131
CACCCAACACCAAACUGUATT against HSPB6 | inactive: 0.394
GAUCACGUUUGACAACAAATT against MCOLN1 | inactive: -0.522
CAACUCCGUGGUUACCAAATT against PQBP1 | active: -1.12
GGGUCAGUGCAUCUUCAAATT against ABCG4 | inactive: -0.439
GCAGCAAGGUGGUACAGAATT against FASTK | inactive: 0.306
GGUUUUAAAGAACAGUUCATT against TAAR6 | inactive: -0.124

Sequence | median seed-adjusted z-score
CACUCUUCGUGGUGGGUAUTT against GHSR | inactive: 0.18
GGACAUCCUCAAUCAGGGATT against N-PAC | inactive: 0.0542
GAGGGACGAUGUCAACGUATT against RHOV | inactive: -0.326
GGAAAUUAUGUAGAACCGATT against ALDH7A1 | inactive: -0.406
GGAUGACAUUAAUUCCUAUTT against F9 | inactive: 0.332
GGAUAUGAGAGGUUUACUATT against TOM1L1 | inactive: -0.0722
ACAGCUUUAUUGCCGAGAATT against NOVA2 | inactive: 0
CCUCCAACCUGACUACUAATT against ZDHHC18 | inactive: -0.309
GCUAAGACCAUGUUCCGGATT against IRF9 | inactive: 0.114
GCCUUAGGGUUGUUCCUGUTT against CHMP1A | inactive: 0
GAUUAUUCCCACUACAUUUTT against TMEM11 | inactive: -0.00121
GGAUAUUUGGAAUUCUGAATT against FKBP9 | inactive: 0.359
AGAAGAUAUUUACAGCUCUTT against HSD17B11 | inactive: 0.379
CGAAAUCAAUAUGAACGAATT against STX8 | inactive: 0.475
AGGUGGAGUUGAUCCGGAATT against PIAS4 | inactive: 0.265
ACAACAUGAUCAUCGCCUATT against SLC6A7 | inactive: 0.00508
GAACGUAAGAAAUACAAUUTT against HSPA4L | inactive: 0.288
GGCACAUCUUAAACUCGGATT against NASP | inactive: 0.133
CAGAAUUGUUUGUUAUGAATT against MTIF2 | inactive: 0.236
CCCAACCUAUCAUCCAGAUTT against KLF14 | inactive: 0.0241
CACUGUAACGGGACUUUUATT against SOCS5 | inactive: 0.312
AGUUUGUCCUGAAGAAUUATT against PTPN23 | inactive: -0.0473

Sequence | median seed-adjusted z-score
CGGAGAACUUCAUCGGCAATT against MGAT5B | inactive: 0
AGACCUAUCUUUUUCUGUATT against TRIM48 | inactive: 0
GGAUGUGAUUGGGUGGACATT against SIPA1L2 | inactive: -0.573
GGCUUGAUGCUGGUACUUUTT against HACL1 | inactive: -0.0664
CUAUAAUGGUUCCAGUAUATT against RFWD2 | inactive: 0.662
GUUACGAGAUGACAAUCUATT against ANAPC10 | inactive: 0.946
CAGUCUUCCUGGGAAGUAATT against SCAMP5 | inactive: -0.303
GGGCUGUUGUAAUAGUGGATT against SFPQ | active: -1.15
GGUCCUAAGUUUGAAGUCATT against FRMPD2 | inactive: -0.329
ACUGUUUAUUGCUAAAGAATT against P2RY13 | inactive: -0.0427
GGGAAUCCAUAGACGGAAATT against GOLGB1 | inactive: 0.0851
ACUUCAACCAGGCACUCAATT against BLOC1S1 | inactive: 0.0692
GGCCUACAACUGUGGGUUATT against PIR | inactive: 0.169
CGCUCGAGGUUAUGGAACATT against ITGA6 | inactive: -0.224
GCACAUGCUUGACUAUCUUTT against ELMO3 | inactive: -0.0898
GACUAGAAGCUCAACUGAATT against CCNG1 | inactive: 0.131
GCAUUGCCCUUUCCUUCGATT against TEP1 | inactive: -0.495
GCCUGGACCGUUAACGAUATT against HMCN1 | inactive: 0.00218
GGCAUAGCUGGAUCCAGGATT against GPR77 | inactive: 0

Look-ups from the results shown.
For median seed-adjusted z-score, CGGAGAACUUCAUCGGCAATT against MGAT5B has the entry inactive: 0
For median seed-adjusted z-score, GGCAUAGCUGGAUCCAGGATT against GPR77 has the entry inactive: 0

Source: PubChem BioAssay AID1347426 (Functional Genomics Laboratory (NCATS/FGL), 2020)
